These are yes or no findings as the source states them, for the method shown. Some entries that bind do so weakly or less than the wild type.
Biological target: human EphA5 protein (human) (UniProt P54756)
Assay: ELISA with decreasing amounts of target protein, read as OD

Amino acid sequences for entries named in this document (tags omitted). Residues count along the entry.
UniProt P54756, residues 25-573: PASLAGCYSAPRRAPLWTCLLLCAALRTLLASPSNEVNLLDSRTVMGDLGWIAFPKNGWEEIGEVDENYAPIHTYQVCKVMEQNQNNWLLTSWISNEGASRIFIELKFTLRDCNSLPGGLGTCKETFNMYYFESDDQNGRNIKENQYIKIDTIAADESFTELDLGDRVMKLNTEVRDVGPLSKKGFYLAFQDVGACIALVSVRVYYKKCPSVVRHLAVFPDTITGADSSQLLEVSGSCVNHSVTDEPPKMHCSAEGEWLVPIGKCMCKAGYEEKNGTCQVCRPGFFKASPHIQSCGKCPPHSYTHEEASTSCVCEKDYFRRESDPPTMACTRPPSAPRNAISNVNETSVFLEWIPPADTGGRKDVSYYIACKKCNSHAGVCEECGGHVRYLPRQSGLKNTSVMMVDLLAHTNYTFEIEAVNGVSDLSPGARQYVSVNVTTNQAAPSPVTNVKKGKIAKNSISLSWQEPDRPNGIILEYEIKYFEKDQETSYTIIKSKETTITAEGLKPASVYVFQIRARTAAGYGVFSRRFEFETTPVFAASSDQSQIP

B1: 11C12 monoclonal anti-EphA5 antibody (antibody, mouse IgG1, V domains shown)
VH: EVTLKESGGGLVQPGGSRKLSCAASGFTFSTFGIHWVRQAPEKGLEWVAYISGASTTIYYADTVKGRFTISRDNPKNTLFLQMTSLRSEDTAMYYCARYGTSFPYGLDYWGQGTSVTVSS
VL: DIVMTQSPGSLAVSLGQRATISCKASQSVDYDGDSYMNWYQQKPGQPPKLLIYGASNLESGIPARFSGSGSGTDFTLNIHPVEEEDAASYYCQQSNEDPFTFGSGTKLEIK
notes: Murine IgG1 monoclonal antibody from a hybridoma; also called monoclonal antibody 11C12; 11C12 antibody
Question: B1 was tested. Which binding did it give?
Answer: binds
